These are yes or no findings as the source states them, for the method shown. Binding seen in cells or lysates may run through a third protein.

The chains behind the UniProt entries cited, without tags or fusion partners.
UniProt Q9UJ55: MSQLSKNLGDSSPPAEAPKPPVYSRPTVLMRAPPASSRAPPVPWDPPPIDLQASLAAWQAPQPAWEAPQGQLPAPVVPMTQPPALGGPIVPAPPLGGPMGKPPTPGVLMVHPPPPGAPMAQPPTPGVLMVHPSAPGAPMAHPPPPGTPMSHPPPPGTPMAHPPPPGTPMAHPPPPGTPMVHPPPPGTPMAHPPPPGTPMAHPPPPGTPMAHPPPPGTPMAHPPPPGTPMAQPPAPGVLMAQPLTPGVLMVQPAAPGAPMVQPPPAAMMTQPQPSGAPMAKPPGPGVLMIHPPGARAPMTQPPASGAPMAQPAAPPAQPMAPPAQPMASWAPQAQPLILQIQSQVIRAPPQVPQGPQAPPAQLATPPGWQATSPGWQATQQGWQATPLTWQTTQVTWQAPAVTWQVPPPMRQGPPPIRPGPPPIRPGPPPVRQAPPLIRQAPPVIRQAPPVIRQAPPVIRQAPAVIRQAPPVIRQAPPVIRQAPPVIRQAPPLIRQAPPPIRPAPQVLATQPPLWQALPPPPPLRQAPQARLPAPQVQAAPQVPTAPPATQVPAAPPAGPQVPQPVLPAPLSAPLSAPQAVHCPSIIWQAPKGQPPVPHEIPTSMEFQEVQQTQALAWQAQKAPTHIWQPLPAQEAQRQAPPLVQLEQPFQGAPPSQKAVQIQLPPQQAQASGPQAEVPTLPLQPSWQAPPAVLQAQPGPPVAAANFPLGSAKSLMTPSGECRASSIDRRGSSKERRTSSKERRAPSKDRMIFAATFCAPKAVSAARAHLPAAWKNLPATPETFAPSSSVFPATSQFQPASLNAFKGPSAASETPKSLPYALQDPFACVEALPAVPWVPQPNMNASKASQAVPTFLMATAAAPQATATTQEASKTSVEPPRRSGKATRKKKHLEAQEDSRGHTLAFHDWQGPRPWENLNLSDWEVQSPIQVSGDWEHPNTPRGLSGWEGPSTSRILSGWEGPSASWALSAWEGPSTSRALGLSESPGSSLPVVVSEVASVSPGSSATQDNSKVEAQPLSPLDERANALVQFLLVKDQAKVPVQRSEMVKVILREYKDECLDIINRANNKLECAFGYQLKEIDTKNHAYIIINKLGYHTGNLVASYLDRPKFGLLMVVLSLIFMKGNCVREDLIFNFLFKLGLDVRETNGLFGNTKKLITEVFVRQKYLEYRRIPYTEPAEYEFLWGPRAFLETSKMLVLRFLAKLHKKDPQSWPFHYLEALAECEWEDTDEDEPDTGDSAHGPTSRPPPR

This is an account of results in PMC7173924.

In the test the target is FLAG-MAGEL2 (tetracycline-inducible, stable cell line) (human) (UniProt Q9UJ55). Kind of test: co-IP; lysate of stable HEK 293 T-Rex Flp-In cells induced (+tet) or not (-tet) to express FLAG-MAGEL2; anti-FLAG magnetic agarose beads; lysis buffer 25 mM Tris-Cl, 150 mM NaCl, 1% IGEPAL, 5% glycerol pH 7.4; in triplicate; blots for endogenous USP7 and CRY1.

B1: endogenous CRY1 (protein, UniProt Q16526 1-586)
chain: MGVNAVHWFRKGLRLHDNPALKECIQGADTIRCVYILDPWFAGSSNVGINRWRFLLQCLEDLDANLRKLNSRLFVIRGQPADVFPRLFKEWNITKLSIEYDSEPFGKERDAAIKKLATEAGVEVIVRISHTLYDLDKIIELNGGQPPLTYKRFQTLISKMEPLEIPVETITSEVIEKCTTPLSDDHDEKYGVPSLEELGFDTDGLSSAVWPGGETEALTRLERHLERKAWVANFERPRMNANSLLASPTGLSPYLRFGCLSCRLFYFKLTDLYKKVKKNSSPPLSLYGQLLWREFFYTAATNNPRFDKMEGNPICVQIPWDKNPEALAKWAEGRTGFPWIDAIMTQLRQEGWIHHLARHAVACFLTRGDLWISWEEGMKVFEELLLDADWSINAGSWMWLSCSSFFQQFFHCYCPVGFGRRTDPNGDYIRRYLPVLRGFPAKYIYDPWNAPEGIQKVAKCLIGVNYPKPMVNHAEASRLNIERMKQIYQQLSRYRGLGLLASVPSNPNGNGGFMGYSAENIPGCSSSGSCSQGSGILHYAHGDSQQTHLLKQGRSSMGTGLSGGKRPSQEEDTQSIGPKVQRQSTN
Turning to B1, the binding result is recorded as “no binding”.
